In PubChem BioAssay AID1439 (NMMLSC, 2008):
Among all 220,000 compounds or so, about 770 (0.35%) were called active. Inconclusive results, whose numbers are uncertain, are shown with a selection of clear calls. No stated cut-off is given here; in the data, active means binding response below about 49% or above about 150%; inconclusive means no clear call, values can overlap the other calls; inactive means in between.

By UniProt entry, the sequences of proteins in these tests, tags left out.
UniProt P09471, whole entry, looked up: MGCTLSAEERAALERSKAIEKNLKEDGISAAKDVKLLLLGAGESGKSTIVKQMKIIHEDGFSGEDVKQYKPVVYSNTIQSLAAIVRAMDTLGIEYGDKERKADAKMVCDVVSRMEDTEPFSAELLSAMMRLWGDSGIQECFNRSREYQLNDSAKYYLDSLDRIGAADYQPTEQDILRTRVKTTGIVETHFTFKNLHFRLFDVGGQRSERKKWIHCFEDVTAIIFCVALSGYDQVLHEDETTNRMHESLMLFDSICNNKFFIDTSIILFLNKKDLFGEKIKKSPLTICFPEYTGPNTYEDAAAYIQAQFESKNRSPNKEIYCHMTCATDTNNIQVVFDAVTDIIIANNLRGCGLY

Target: Guanine nucleotide-binding protein G(o) subunit alpha (Homo sapiens) (UniProt P09471)
Assay: RGS7-Galphao binding modulators, primary screen, biochemical, multiplexed bead flow cytometry (AID 1439);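 further: fluorescent Galphao held in activated GDP-AlF4 state binding bead-coupled RGS7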
Settings: at 10 µM, actives lie on both sides

| SMILES | binding response (% of control) |
| --- | --- |
| Cc1cc(N2CCN(c3ccccc3)CC2)nc(N2CCOCC2)n1 | inconclusive: 83% |
| O=C1OC(/C(=C\Nc2cc(Cl)ccc2O)[N+](=O)[O-])c2ccccc21 (configuration not stated) | inconclusive: 115% |
| O=C(c1ccc(-n2cccn2)cc1)N1CCc2ccccc2C1 | inconclusive: 89.3% |
| CC(=O)CC1=NC(C)(C)Cc2ccccc21 | active: 24% |
| CN(C)CCCNCCCNC(=O)/C(=N\O)c1ccccc1 | inconclusive: 44.7% |
| O=C(N/N=C/c1ccc2ncccc2c1)c1cc(-c2cccs2)nc2ccccc12 | inconclusive: 110% |
| Cc1cc(=O)[nH]c2c1c(C)nn2C1CCOC(C)(C)C1 (configuration not stated) | inactive: 100% |
| Cc1cccc(C)c1N1CCN(C(=O)Cn2cncn2)CC1 | inconclusive: 108% |
| Cc1ccc([N+](=O)[O-])cc1NC(=O)Nc1onc(C)c1C | inconclusive: -134% |
| Cc1ccc(C(=O)NC(N(C)C)C(Cl)(Cl)Cl)cc1 (configuration not stated) | inconclusive: 107% |
| O=C(CSc1ccc(-c2ccccn2)nn1)N1CCc2ccccc21 | inconclusive: 106% |
| C=CCNC(=S)N1CCN(S(=O)(=O)c2ccc(C)cc2)CC1 | inconclusive: 68% |
| COc1ccc(NC(=S)Nc2ccccc2)c(OC)c1 | inactive: 107% |
| CN(Cc1ccccc1F)c1nc(-c2cccs2)nc2ccccc12 | inactive: 101% |
| CN(C(=O)COC(=O)c1ccc(Cl)nc1)C1CCS(=O)(=O)C1 (configuration not stated) | inactive: 98.8% |
| Cc1ccc(N2C(=O)SC(Cc3ccccc3)C2=O)cc1 (configuration not stated) | inconclusive: 135% |
| O=C1c2ccccc2C(Nc2ccccc2)N1Cc1ccc2c(c1)OCO2 (configuration not stated) | inconclusive: 79.3% |
| CCC(C)NCCOCCOc1ccc(Cl)c2ccccc12 (configuration not stated) | inconclusive: 90% |
| Cn1c(SCc2nc3cc(C(=O)O)ccc3c(=O)[nH]2)nnc1C(F)(F)F | inconclusive: 113% |
| CNC(=S)NNC(=O)c1cccs1 | inconclusive: 56.3% |
| COc1ccc(/C=C/C(=O)c2cc(Br)ccc2O)cc1OC | inconclusive: 89.1% |

| SMILES | binding response (% of control) |
| --- | --- |
| COc1ccc(NC(=O)N2CCCC2C(=O)NCc2ccc(C)cc2)cc1 (configuration not stated) | inconclusive: 90.3% |
| O=C(OCC(=O)C12CC3CC(CC(C3)C1)C2)c1cccnc1Cl | inactive: 97.5% |
| COc1ccc(/C=N/n2cnc3c([nH]c4ccc(C)cc43)c2=O)cc1CN1CCCC1 | inconclusive: 95% |
| Cc1ccc(Oc2nc(-c3cccnc3)nc3ccccc23)c([N+](=O)[O-])n1 | inactive: 83.8% |
| Cc1cc(NC(=O)c2ccccc2)nc(C)n1 | inconclusive: 70.9% |
| CCOC(=O)N1CCN(c2c(NCc3ccccc3Cl)c(=O)c2=O)CC1 | inconclusive: 90.8% |
| Cc1ccc(C(=O)N/N=C/C=C/c2ccccc2)o1 | active: 230% [activator] |
| Cc1cc(C(=O)NCC(=O)OC(C(=O)Nc2cc(C(F)(F)F)ccc2Cl)c2ccccc2)ccc1[N+](=O)[O-] (configuration not stated) | inactive: 102% |
| CCN(CC)CCCNc1oc(/C=C/c2ccccc2)nc1C#N | inconclusive: 89% |
| CCCNC(=O)C12CCC(C)(C(=O)O1)C2(C)C (configuration not stated) | inconclusive: 173% |
| Cc1ccc(OS(=O)(=O)c2ccc(-c3csc(C)n3)s2)c(C)c1 | inconclusive: 84.1% |
| O=C1SC(SCc2ccccc2Cl)=N/C1=C\c1ccc(C(=O)O)cc1 | inconclusive: 105% |
| O=c1c2[nH]c3ccc(Br)cc3c2ncn1Cc1ccncc1 | inconclusive: 96.7% |
| CS(=O)(=O)Nc1nc2n(n1)C(c1ccc(F)cc1)CC(c1ccccc1)N2 (configuration not stated) | inconclusive: 121% |
| Cc1oc(S(=O)(=O)N2CCCC2)cc1C(=O)Nc1ccc(F)cc1 | inconclusive: 92.8% |
| c1ccc(-c2nc3c4ccccc4ccn3c2CN2CCCCC2)cc1 | inconclusive: 100% |
| COc1cccc(N/C=C/c2onc(C)c2[N+](=O)[O-])c1 | inactive: 97.8% |
| O=C(CSc1nnnn1C1CCCC1)Nc1ccccc1F | inconclusive: 111% |
| CC1(CC(=O)Nc2ccccc2)NC(=S)N(c2ccccc2)N1 (configuration not stated) | inconclusive: 93.3% |
| CCOC(=O)c1c(C)nc(SCC(N)=O)c(C#N)c1-c1ccccc1 | inactive: 104% |
| CCOC(=O)c1sc(S(C)(=O)=O)c2c1CC(C)(C)C/C2=N/O | inconclusive: 185% |

| SMILES | binding response (% of control) |
| --- | --- |
| O=C(c1ccc(Cn2c(=S)[nH]c3ccc(Br)cc3c2=O)cc1)N1CCN(C2CCCCC2)CC1 | inactive: 85% |
| C=CCOC(=O)/C=C/C(=O)NC(N)=O | inconclusive: 36.4% |
| O/N=C/c1ccc2cccc(O)c2n1 | inconclusive: 89.2% |
| COc1ccccc1/C=C/C(=O)Nc1nc(N)n(-c2ccccc2)n1 | inconclusive: 94.2% |
| Cc1ccc(S(=O)(=O)N/N=C2/CC(=O)CC(C)(C)C2)cc1[N+](=O)[O-] | inconclusive: 67.5% |
| CCOC(=O)Cc1csc(CC(N)=O)n1 | inconclusive: 108% |
| NC(=S)N/N=C/c1c(O)ccc2ccccc12 | inconclusive: 96.3% |
| Fc1cccc2ncnc(OCc3ccccc3)c12 | inconclusive: 88.9% |
| Cc1ccc(C(=O)OCCn2cc(C#N)c(=O)[nH]c2=O)cc1 | inactive: 94.2% |
| CC(O)CNc1nc(Cl)c(C#N)s1 (configuration not stated) | inconclusive: 150% |
| O=C(NNc1ccccc1)C(CCO)C(=O)NNc1ccccc1 | inconclusive: 83.2% |
| COc1ccc(CN2CCN(C(=O)c3ccco3)CC2)cc1OC | inconclusive: 82.8% |
| COc1cc(C(=O)OCC(=O)NC(=O)C2CCCCC2)ccc1OC(F)F | inconclusive: 122% |
| CN(C)CCCNc1oc(/C=C/c2ccccc2)nc1C#N | inconclusive: 104% |
| CCCc1cc(NCCCO)n2c(nc3ccccc32)c1C#N | inconclusive: 84% |
| COc1ccc(CC(=O)Nc2ccc(C(N)=O)cc2)cc1 | inconclusive: 100% |
| O=S(=O)(O)c1nc2ccccc2n1Cc1ccccc1 | inactive: 99.5% |
| O=C(O)CCn1c(=S)n(CCC(=O)O)c2ccccc21 | inconclusive: 115% |
| O=C(COc1ccccc1F)NC12CC3CC(CC(C3)C1)C2 | inconclusive: 122% |
| Cn1c(SCC(=O)c2ccccc2)nnc1-c1cccc(N)c1 | inactive: 77.2% |

19 successive records out of the list so far, quoted:

| SMILES | binding response (% of control) |
| --- | --- |
| O=C(c1ccc(Cn2c(=S)[nH]c3ccc(Br)cc3c2=O)cc1)N1CCN(C2CCCCC2)CC1 | inactive: 85% |
| C=CCOC(=O)/C=C/C(=O)NC(N)=O | inconclusive: 36.4% |
| O/N=C/c1ccc2cccc(O)c2n1 | inconclusive: 89.2% |
| COc1ccccc1/C=C/C(=O)Nc1nc(N)n(-c2ccccc2)n1 | inconclusive: 94.2% |
| Cc1ccc(S(=O)(=O)N/N=C2/CC(=O)CC(C)(C)C2)cc1[N+](=O)[O-] | inconclusive: 67.5% |
| CCOC(=O)Cc1csc(CC(N)=O)n1 | inconclusive: 108% |
| NC(=S)N/N=C/c1c(O)ccc2ccccc12 | inconclusive: 96.3% |
| Fc1cccc2ncnc(OCc3ccccc3)c12 | inconclusive: 88.9% |
| Cc1ccc(C(=O)OCCn2cc(C#N)c(=O)[nH]c2=O)cc1 | inactive: 94.2% |
| CC(O)CNc1nc(Cl)c(C#N)s1 (configuration not stated) | inconclusive: 150% |
| O=C(NNc1ccccc1)C(CCO)C(=O)NNc1ccccc1 | inconclusive: 83.2% |
| COc1ccc(CN2CCN(C(=O)c3ccco3)CC2)cc1OC | inconclusive: 82.8% |
| COc1cc(C(=O)OCC(=O)NC(=O)C2CCCCC2)ccc1OC(F)F | inconclusive: 122% |
| CN(C)CCCNc1oc(/C=C/c2ccccc2)nc1C#N | inconclusive: 104% |
| CCCc1cc(NCCCO)n2c(nc3ccccc32)c1C#N | inconclusive: 84% |
| COc1ccc(CC(=O)Nc2ccc(C(N)=O)cc2)cc1 | inconclusive: 100% |
| O=S(=O)(O)c1nc2ccccc2n1Cc1ccccc1 | inactive: 99.5% |
| O=C(O)CCn1c(=S)n(CCC(=O)O)c2ccccc21 | inconclusive: 115% |
| O=C(COc1ccccc1F)NC12CC3CC(CC(C3)C1)C2 | inconclusive: 122% |
